Substrate in assay [1]: SPOP (mouse (endogenous in BMDMs)) (UniProt Q6ZWS8)
The assay is described as follows: co-IP.

In assay [2] the target is T1, recombinant full-length mouse IRF2 (mouse) (UniProt P23906).
T1 sequence: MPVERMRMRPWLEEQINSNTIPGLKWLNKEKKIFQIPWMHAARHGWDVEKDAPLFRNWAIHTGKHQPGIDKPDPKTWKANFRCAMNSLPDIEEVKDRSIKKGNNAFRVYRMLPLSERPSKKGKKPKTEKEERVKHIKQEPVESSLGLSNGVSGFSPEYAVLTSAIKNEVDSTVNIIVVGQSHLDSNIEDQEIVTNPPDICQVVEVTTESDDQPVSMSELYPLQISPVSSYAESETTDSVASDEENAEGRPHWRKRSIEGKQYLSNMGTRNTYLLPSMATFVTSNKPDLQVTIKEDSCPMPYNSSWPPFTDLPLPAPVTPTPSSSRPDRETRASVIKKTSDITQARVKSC
The assay is described as follows: native gel or EMSA.

These are yes or no findings as the source states them, for the method shown. For part of these data: Binding seen in cells or lysates may run through a third protein. Some results given as binding are weak or reduced against the parent protein; the word gives no strength.

B1: IRF2 (protein, UniProt P23906 1-349)
chain: MPVERMRMRPWLEEQINSNTIPGLKWLNKEKKIFQIPWMHAARHGWDVEKDAPLFRNWAIHTGKHQPGIDKPDPKTWKANFRCAMNSLPDIEEVKDRSIKKGNNAFRVYRMLPLSERPSKKGKKPKTEKEERVKHIKQEPVESSLGLSNGVSGFSPEYAVLTSAIKNEVDSTVNIIVVGQSHLDSNIEDQEIVTNPPDICQVVEVTTESDDQPVSMSELYPLQISPVSSYAESETTDSVASDEENAEGRPHWRKRSIEGKQYLSNMGTRNTYLLPSMATFVTSNKPDLQVTIKEDSCPMPYNSSWPPFTDLPLPAPVTPTPSSSRPDRETRASVIKKTSDITQARVKSC
For the molecule B1, the binding result in assay [1] is on record as “no binding”.

B2: recombinant mouse SPOP (aa28-329) (domain or fragment, UniProt Q6ZWS8 28-329, looked up)
chain: KVVKFSYMWTINNFSFCREEMGEVIKSSTFSSGANDKLKWCLRVNPKGLDEESKDYLSLYLLLVSCPKSEVRAKFKFSILNAKGEETKAMESQRAYRFVQGKDWGFKKFIRRDFLLDEANGLLPDDKLTLFCEVSVVQDSVNISGQNTMNMVKVPECRLADELGGLWENSRFTDCCLCVAGQEFQAHKAILAARSPVFSAMFEHEMEESKKNRVEINDVEPEVFKEMMCFIYTGKAPNLDKMADDLLAAADKYALERLKVMCEDALCSNLSVENAAEILILADLHSADQLKTQAVDFINYHA
For B2, the binding entry in assay [2] is recorded as “no binding”.

B3: IRF1 (protein, UniProt P15314 1-329)
chain: MPITRMRMRPWLEMQINSNQIPGLIWINKEEMIFQIPWKHAAKHGWDINKDACLFRSWAIHTGRYKAGEKEPDPKTWKANFRCAMNSLPDIEEVKDQSRNKGSSAVRVYRMLPPLTRNQRKERKSKSSRDTKSKTKRKLCGDVSPDTFSDGLSSSTLPDDHSSYTTQGYLGQDLDMERDITPALSPCVVSSSLSEWHMQMDIIPDSTTDLYNLQVSPMPSTSEAATDEDEEGKIAEDLMKLFEQSEWQPTHIDGKGYLLNEPGTQLSSVYGDFSCKEEPEIDSPRGDIGIGIQHVFTEMKNMDSIMWMDSLLGNSVRLPPSIQAIPCAP
On to B3, for which the binding entry in assay [1] is recorded as “binds”.

(Values after publication doi:10.1101/2025.09.23.678148 (bioRxiv, 2025).)
